# Measured values from PMC5376651.
# Experiments:
# [1] = molecular target: CTB4a^KMXBG-YFP^N (rice (Oryza sativa ssp. japonica cv. KMXBG)); assay: split reporter; bimolecular fluorescence complementation in Nicotiana benthamiana; YFP^N and YFP^C fusions; signal at chloroplasts
# [2] = molecular target: CTB4a^Towada-YFP^N (rice (Oryza sativa ssp. japonica cv. Towada)); assay: as above
binder,measurement,setting,value
"AtpB-YFP^C (protein, UniProt P12085 1-498) MRTNPTTSRPGVSTIEEKSTGRIDQIIGPVLDVTFPPGKLPYIYNALVVKSRDTDGKQINVTCEVQQLLGNNRVRAVAMSATDGLMRGMEVIDTGAPLSVPVGGATLGRIFNVLGEPVDNLGPVDTSATFPIHRSAPAFIELDTKLSIFETGIKVVDLLAPYRRGGKIGLFGGAGVGKTVLIMELINNIAKAHGGVSVFGGVGERTREGNDLYMEMKESGVINEKNLEESKVALVYGQMNEPPGARMRVGLTALTMAEYFRDVNKQDVLLFIDNIFRFVQAGSEVSALLGRMPSAVGYQPTLSTEMGSLQERITSTKKGSITSIQAVYVPADDLTDPAPATTFAHLDATTVLSRGLASKGIYPAVDPLDSTSTMLQPRIVGNEHYETAQRVKQTLQRYKELQDIIAILGLDELSEEDRLTVARARKIERFLSQPFFVAEVFTGSPGKYVGLAETIRGFQLILSGELDGLPEQAFYLVGNIDEASTKAINLEEENKLKK",binding,[1],binds
same,binding,[2],binds

# Results are given in words; binding and its absence hold for the method and conditions named. Binding seen in cells or lysates may run through a third protein. Binding can be weak; no strength is given. Tags and fused reporters may be left off the sequences shown.
